# Test results taken from the supplement of paper PMC8728848.
# Some of the results follow.
# B1: PEB1 (Campylobacter jejuni), Q0P9X8 (protein)
# chain: MVFRKSLLKLAVFALGACVAFSNANAAEGKLESIKSKGQLIVGVKNDVPHYALLDQATGEIKGFEVDVAKLLAKSILGDDKKIKLVAVNAKTRGPLLDNGSVDAVIATFTITPERKRIYNFSEPYYQDAIGLLVLKEKKYKSLADMKGANIGVAQAATTKKAIGEAAKKIGIDVKFSEFPDYPSIKAALDAKRVDAFSVDKSILLGYVDDKSEILPDSFEPQSYGIVTKKDDPAFAKYVDDFVKEHKNEIDALAKKWGL
# Key:
# Test in all cases: glycan array binding signal (z-score within array); higher = stronger binding
# Conditions in all cases: glycan notation: IUPAC condensed, linker removed
# [1] = molecular target: Gal3S(b1-4)[Fuc(a1-3)]Glc
# Procedure, shortened: (§1)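 Negative Z-scores can be read as non-binding. The Z-score is calculated within each array and then averaged across arrays of one protein sequence at different concentrations or buffers and across linkers. Arrays, 3228 in all, were curated from the Consortium for Functional Glycomics database and kept only where the protein sequence was available.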
# [2] = molecular target: Gal3S(b1-4)[Fuc(a1-3)]Glc6S
# Procedure, shortened: as §1
# Gal3S4S(b1-4)GlcNAc = molecular target: Gal3S4S(b1-4)GlcNAc
# Procedure, shortened: as §1
# Gal3S6S(b1-4)GlcNAc = molecular target: Gal3S6S(b1-4)GlcNAc
# Procedure, shortened: as §1
# Gal3S6S(b1-4)GlcNAc6S = molecular target: Gal3S6S(b1-4)GlcNAc6S
# Procedure, shortened: as §1
# Gal4S(b1-4)GlcNAc = molecular target: Gal4S(b1-4)GlcNAc
# Procedure, shortened: as §1
# Gal4S6S(b1-4)GlcNAc = molecular target: Gal4S6S(b1-4)GlcNAc
# Procedure, shortened: as §1
# Gal6S(b1-4)Glc = molecular target: Gal6S(b1-4)Glc
# Procedure, shortened: as §1
# Gal6S(b1-4)Glc6S = molecular target: Gal6S(b1-4)Glc6S
# Procedure, shortened: as §1
# Gal6S(b1-4)GlcNAc = molecular target: Gal6S(b1-4)GlcNAc
# Procedure, shortened: as §1
# Gal6S(b1-4)GlcNAc6S = molecular target: Gal6S(b1-4)GlcNAc6S
# Procedure, shortened: as §1
# GalNAc(a1-3)Gal = molecular target: GalNAc(a1-3)Gal
# Procedure, shortened: as §1
# GalNAc(a1-3)GalNAc = molecular target: GalNAc(a1-3)GalNAc
# Procedure, shortened: as §1
# [3] = molecular target: GalNAc(a1-3)GalNAc(a1-3)Gal(a1-4)Gal(b1-4)GlcNAc
# Procedure, shortened: as §1
# GalNAc(b1-3)Gal = molecular target: GalNAc(b1-3)Gal
# Procedure, shortened: as §1
# [4] = molecular target: GalNAc(b1-3)Gal(a1-4)Gal(b1-4)GlcNAc
# Procedure, shortened: as §1
# [5] = molecular target: GalNAc(b1-3)Gal(a1-4)Gal(b1-4)GlcNAc(b1-3)Gal(b1-4)Glc
# Procedure, shortened: as §1
# [6] = molecular target: GalNAc(b1-3)Gal(a1-6)Gal(b1-4)Glc
# Procedure, shortened: as §1
# GalNAc(b1-3)GalNAc = molecular target: GalNAc(b1-3)GalNAc
# Procedure, shortened: as §1
# GalNAc(b1-4)GlcNAc = molecular target: GalNAc(b1-4)GlcNAc
# Procedure, shortened: as §1
# [7] = molecular target: GalNAc(b1-4)GlcNAc(b1-2)Man(a1-3)[GalNAc(b1-4)GlcNAc(b1-2)Man(a1-6)]Man(b1-4)GlcNAc(b1-4)GlcNAc
# Procedure, shortened: as §1
# Glc(a1-4)Glc = molecular target: Glc(a1-4)Glc
# Procedure, shortened: as §1
# Glc(a1-6)Glc(a1-6)Glc = molecular target: Glc(a1-6)Glc(a1-6)Glc
# Procedure, shortened: as §1
# Glc(b1-4)Glc = molecular target: Glc(b1-4)Glc
# Procedure, shortened: as §1
# Glc(b1-6)Glc = molecular target: Glc(b1-6)Glc
# Procedure, shortened: as §1
# GlcA(b1-3)Gal = molecular target: GlcA(b1-3)Gal
# Procedure, shortened: as §1
# GlcA(b1-3)GlcNAc = molecular target: GlcA(b1-3)GlcNAc
# Procedure, shortened: as §1
# GlcA(b1-6)Gal = molecular target: GlcA(b1-6)Gal
# Procedure, shortened: as §1
# [8] = molecular target: GlcNAc(a1-3)Gal(b1-4)GlcNAc
# Procedure, shortened: as §1
# [9] = molecular target: GlcNAc(a1-4)Gal(b1-3)GlcNAc
# Procedure, shortened: as §1
# [10] = molecular target: GlcNAc(a1-4)Gal(b1-4)GalNAc
# Procedure, shortened: as §1
# [11] = molecular target: GlcNAc(a1-4)Gal(b1-4)GlcNAc
# Procedure, shortened: as §1
# [12] = molecular target: GlcNAc(a1-4)Gal(b1-4)GlcNAc(b1-3)Gal(b1-4)Glc
# Procedure, shortened: as §1
# [13] = molecular target: GlcNAc(a1-4)Gal(b1-4)GlcNAc(b1-3)Gal(b1-4)GlcNAc
# Procedure, shortened: as §1
# [14] = molecular target: GlcNAc(a1-4)Gal(b1-4)GlcNAc(b1-3)Gal(b1-4)GlcNAc(b1-3)Gal(b1-4)GlcNAc
# Procedure, shortened: as §1
# [15] = molecular target: GlcNAc(a1-4)Gal(b1-4)GlcNAc(b1-3)Gal(b1-4)[Fuc(a1-3)]GlcNAc(b1-3)Gal(b1-4)[Fuc(a1-3)]GlcNAc
# Procedure, shortened: as §1
# [16] = molecular target: GlcNAc(a1-6)Gal(b1-4)GlcNAc
# Procedure, shortened: as §1
binder,measurement,setting,value
B1,glycan array binding signal (z-score),[1],1.04
same,glycan array binding signal (z-score),[2],0.849
same,glycan array binding signal (z-score),Gal3S4S(b1-4)GlcNAc,-0.191
same,glycan array binding signal (z-score),Gal3S6S(b1-4)GlcNAc,0.952
same,glycan array binding signal (z-score),Gal3S6S(b1-4)GlcNAc6S,0.386
same,glycan array binding signal (z-score),Gal4S(b1-4)GlcNAc,-0.323
same,glycan array binding signal (z-score),Gal4S6S(b1-4)GlcNAc,0.407
same,glycan array binding signal (z-score),Gal6S(b1-4)Glc,0.11
same,glycan array binding signal (z-score),Gal6S(b1-4)Glc6S,0.171
same,glycan array binding signal (z-score),Gal6S(b1-4)GlcNAc,0.319
same,glycan array binding signal (z-score),Gal6S(b1-4)GlcNAc6S,0.367
same,glycan array binding signal (z-score),GalNAc(a1-3)Gal,-0.378
same,glycan array binding signal (z-score),GalNAc(a1-3)GalNAc,0.558
same,glycan array binding signal (z-score),[3],-0.658
same,glycan array binding signal (z-score),GalNAc(b1-3)Gal,-1.12
same,glycan array binding signal (z-score),[4],-0.938
same,glycan array binding signal (z-score),[5],-1.06
same,glycan array binding signal (z-score),[6],0.441
same,glycan array binding signal (z-score),GalNAc(b1-3)GalNAc,-0.428
same,glycan array binding signal (z-score),GalNAc(b1-4)GlcNAc,-0.358
same,glycan array binding signal (z-score),[7],4.17
same,glycan array binding signal (z-score),Glc(a1-4)Glc,-0.677
same,glycan array binding signal (z-score),Glc(a1-6)Glc(a1-6)Glc,-0.133
same,glycan array binding signal (z-score),Glc(b1-4)Glc,0.505
same,glycan array binding signal (z-score),Glc(b1-6)Glc,0.439
same,glycan array binding signal (z-score),GlcA(b1-3)Gal,-0.129
same,glycan array binding signal (z-score),GlcA(b1-3)GlcNAc,-1
same,glycan array binding signal (z-score),GlcA(b1-6)Gal,-0.703
same,glycan array binding signal (z-score),[8],-0.709
same,glycan array binding signal (z-score),[9],-0.298
same,glycan array binding signal (z-score),[10],0.242
same,glycan array binding signal (z-score),[11],0.303
same,glycan array binding signal (z-score),[12],0.59
same,glycan array binding signal (z-score),[13],-0.834
same,glycan array binding signal (z-score),[14],-1.47
same,glycan array binding signal (z-score),[15],0.887
same,glycan array binding signal (z-score),[16],-0.577
